According to PubChem BioAssay AID588499 (NMMLSC, 2011):
Several values for one entry are separate records, joined by “and”; a condition that tells them apart may be missing. Identical values can stand only once. Among all 360,000 compounds or so, about 610 (0.17%) were called active. The shares of active, inactive and inconclusive entries below differ from those in the screen. No stated cut-off is given here; in the data, active means inhibition above about 30%; inconclusive means no clear call, values can overlap the other calls; inactive means below that.

The compounds below were run on Botulinum neurotoxin type A light chain protease (Clostridium botulinum A str. ATCC 3502) (assay: blockers of BoNT/A LC substrate cleavage – biochemical, flow cytometry, MLPCN library, primary screen (AID 588499; further: plate controls were buffer without enzyme for full effect and enzyme alone for no effect)). Conditions: multiplex microsphere protease substrate cleavage, at 10 µM, hits give high values.

SMILES	inhibition
CCOC(=O)c1c(CN2CCOCC2)oc2ccc(OC)cc12	inconclusive: -2.2%
COc1ccc(CNC(=O)CSc2nnc(C)s2)cc1	inconclusive: 2.9%
COc1ccc(NC(=O)Cc2ccc(Cl)cc2)cc1NC(=O)c1ccco1	inconclusive: 2.7%
COc1cc2[nH]c(=O)n(CCCCCC(=O)N3CCN(c4ccccn4)CC3)c(=O)c2cc1OC	inconclusive: -2.7%
O=C(CSc1nccc(=O)[nH]1)Nc1ccc(F)c(Cl)c1	inconclusive: 0.2%
COC(=O)C1=C(C)N(Cc2ccccc2)C(=NCCN2CCOCC2)N[C@H]1CCc1ccccc1	inactive: 0.6%
CN(C)/C(=N\S(=O)(=O)c1ccc(Cl)cc1)c1ccc(F)cc1	inactive: -1.6%
COc1ccc(C#Cc2cccc(-c3nc(C(=O)NCCCN4CCOCC4)cc4c3[C@H](CCO)N(S(=O)C(C)(C)C)C4)c2)cc1OC (some centres not stated)	inactive: 0.7%
O=c1cc(C(F)(F)F)[nH]c2ccc(C(F)(F)F)cc12	inconclusive: 2.1%
Cc1ccccc1-n1c(O)c(/C=C2/C(c3ccccc3)=Nc3ccccc32)c(=O)[nH]c1=O	active: 47.1%
CC(CN1CCN(C)CC1)OC(=O)c1ccc(Cl)cc1Cl (configuration not stated)	inconclusive: -0.4%
CC(=NNC(=S)N1CC2CCC(CC2)C1)c1cnccn1	active: 40.5%
Cc1ccc(NC(=O)OCC(F)(F)C(F)F)cc1NC(=O)OCC(F)(F)C(F)F	inconclusive: -5.9%
Cc1ccc(/C=N/Nc2ccc3c(C(F)(F)F)cc(C(F)(F)F)nc3n2)cc1	inactive: -0.5%
O=C(NCCCN1CCOCC1)c1ccc(CNS(=O)(=O)c2ccc(F)cc2)cc1	inconclusive: 0.7%
COn1c(=S)[nH]c2ccccc2c1=O	inconclusive: 2%
COc1ccc(OC)c(Nc2ncnc3sccc23)c1	inconclusive: -1.2%
COc1ccc(NC(=O)CNc2cc(C)ccc2C)cc1S(=O)(=O)N1CCOCC1	inactive: -0.2%
O=C(O)c1ccccc1-c1c2cc(I)c(=O)c(I)c-2oc2c(I)c(O)c(I)cc12	active: 51.7% and active: 64.3%

SMILES	inhibition
CCN(CC)S(=O)(=O)c1ccc(N2CCCCC2)c(NC(=O)c2ccncc2)c1	inactive: 0.2%
COc1ccc(-c2cnc(N)nc2-c2ccc(OCc3ccccc3)cc2O)cc1	inactive: 0.2%
CC(=O)Nc1cccc(C(=O)/C=C/c2ccc[nH]2)c1	inconclusive: -26.1%
CCCOc1ccccc1-c1nc(SCCC(=O)O)n[nH]1	inconclusive: 27.8%
CC1c2ccccc2N(NC(=O)Cc2ccccc2)C1C (configuration not stated)	inconclusive: 16.1%
O=C(CCNC(=O)c1ccc(Br)o1)NC1CCCC1	inconclusive: 0.4%
Cc1ccc(N/C=C/C(=O)c2sc(-c3ccccc3)nc2C)cc1	active: 32.2%
Cc1cccc(CSc2nnc([C@@H]3CCCN3)o2)c1	inactive: -3.2%
CCOc1cccc2cc(C(=O)Nc3cc(C)on3)c(=O)oc12	inconclusive: -1.3%
COc1cc(NC(=O)c2ccccc2Cl)c2ncccc2c1	inconclusive: -1.9%
COC(=O)c1c(C)oc(C)c1S(=O)(=O)N1CCOCC1	inconclusive: -10.6%
O=C1NCCCC1C(=O)N1CCN(C(c2ccccc2)c2ccccc2)CC1 (configuration not stated)	inconclusive: 3.8%
CCOC(=O)c1cc2c(=O)n3ccccc3nc2n(C(C)C)c1=NC(=O)c1c(-c2c(F)cccc2Cl)noc1C	active: 70.8%
O=C(NCCSc1ccc(Cl)cc1)c1ccco1	inactive: 2%
COc1cccc(C(C)(O)c2nc(-c3ccc4c(c3)OCO4)cs2)c1 (configuration not stated)	inactive: -0.6%
C=CCN1C(=O)C(CC(=O)Nc2ccccc2)S/C1=N/c1nccs1 (configuration not stated)	inconclusive: -39.6%
COc1ccc(/C=N/Nc2nc(-c3ccc(C)cc3)c(NC(C)=O)s2)cc1OC	inactive: 2.9%
CCCCNC(=O)C1(C)CCCCN1C(=O)c1csnn1 (configuration not stated)	inactive: 0.3%
N#CC1=C(N)C(C#N)(C#N)C(c2cccnc2)C2CC(c3ccccc3)CC=C12 (configuration not stated)	inactive: 0.8%

SMILES	inhibition
Cc1cc(C)cc(NC(=O)NCc2c(-c3ccccc3)noc2C)c1	inconclusive: 28.1%
CN(C)NC(=S)NC1CC2CCC1C2 (configuration not stated)	inconclusive: -0.7%
C=C(C)CSc1nc2sc3c(c2c(=O)n1C1CCCCC1)CCN(C)C3	active: 32.6%
Cc1nc(-c2ccc(F)cc2)c(CC(=O)Nc2cccc(S(=O)(=O)N3CCOCC3)c2)s1	inactive: 1.2%
CCCCC1CCC(C(=O)Nc2ccc(S(=O)(=O)Nc3nccs3)cc2)CC1 (configuration not stated)	inconclusive: -1.5%
COc1ccc(S(=O)(=O)N(C)C[C@H]2Oc3c(NC(=O)c4ccncc4)cccc3C(=O)N([C@H](C)CO)C[C@@H]2C)cc1	inactive: -0.2%
Cc1c(S(=O)(=O)N2CCN(c3cccc(C(F)(F)F)c3)CC2)c(=O)n(C)c(=O)n1C	inactive: -0.9%
O=C(CNc1cc(S(=O)(=O)N2CCOCC2)ccc1N1CCCC1)N1CCc2ccccc21	inactive: -0.7%
O=c1[nH]c(=S)n(CCC2=CCCCC2)c(O)c1C=NCc1cccnc1	inconclusive: -3.3%
COc1cccc(NC(=S)N(CCCN2CCOCC2)C(C)c2cc3ccccc3o2)c1 (configuration not stated)	inactive: -2.4%
Cc1nc2c(o1)C(=O)c1ccccc1C2=Nc1ccccc1	inactive: -0.3%
CCCc1nc(SC)[nH]c(=O)c1C	inconclusive: 1.4%
N#C/C(=C\c1ccc(F)cc1F)S(=O)(=O)c1ccccn1	inconclusive: 6.7%
Nc1c(C(=O)NC2CCCC2)sc2nc(-c3cccs3)ccc12	inactive: 18.4%
Cc1sc2nc(SCc3ccc(C(=O)O)cc3)n(Cc3ccco3)c(=O)c2c1C	inactive: 0.6%
C[C@H](CO)N1C[C@H](C)[C@H](CN(C)Cc2ccncc2)Oc2cc(-c3ccccc3F)ccc2S1(=O)=O	inactive: -0.1%
CCn1c(SCC(=O)Nc2cc3oc4ccccc4c3cc2OC)nnc1-c1cccs1	inconclusive: 0.6%
CC(=O)CSc1cc(-c2ccccc2)nc2ncnn12	inconclusive: -0.2%
Cn1nnnc1SCC(=O)Nc1cc(C(=O)O)cc(C(=O)O)c1	inconclusive: -4.6%
